Literature values in patent US11965896B2, “Methods of treating patients at risk for renal injury and renal failure” (RENIBUS THERAPEUTICS, INC., priority 2018, dated 2024).
At least one compound was matched to its structure with a doubt left.

Tested on: renal damage in the cisplatin model and acute renal injury in the ischemia-reperfusion model
Conditions: in vivo

COC(=O)[C@]12CCC(C)(C)C[C@H]1[C@H]1C(=O)C=C3[C@@]4(C)C=C(C#N)C(=O)C(C)(C)[C@@H]4CC[C@@]3(C)[C@]1(C)CC2 [RTA 402, bardoxolone methyl]
single agent anti-inflammatory activity in animal models of inflammation: significant single agent anti-inflammatory activity
